Counter-ions that a name gives are not always drawn. The list shows a part of the results. Repeats in this data set agree poorly, so a single value says little.
Tested on: MDA-MB-468
Assay: phospho-S6 immunofluorescence (DAPI-normalised), per-plate z-score; higher = higher phospho-S6 signal (less pathway suppression)
Details: 24 h
Experimental: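 GPCR-targeted compound library (MedChemExpress HY-L006) tested on MDA-MB-468 PTEN-null TNBC cells in 384-well plates at 0.1, 1 or 10 uM, combined with vehicle, GDC0941 450 nM or lapatinib 1 uM, for 24 h. Phospho-S6 (S240/244) immunofluorescence normalised to DAPI and expressed as a per-plate z-score; values are the mean of biological triplicates.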

[1] = compound 0.1 µM, co-treatment: GDC0941 450 nM
[2] = compound 0.1 µM, co-treatment: lapatinib 1 uM
[3] = compound 0.1 µM, co-treatment: vehicle
[4] = compound 1 µM, co-treatment: GDC0941 450 nM
[5] = compound 1 µM, co-treatment: lapatinib 1 uM
[6] = compound 1 µM, co-treatment: vehicle
[7] = compound 10 µM, co-treatment: GDC0941 450 nM
[8] = compound 10 µM, co-treatment: lapatinib 1 uM
[9] = compound 10 µM, co-treatment: vehicle

SMILES | phospho-S6 immunofluorescence (z-score) [1] | phospho-S6 immunofluorescence (z-score) [2] | phospho-S6 immunofluorescence (z-score) [3] | phospho-S6 immunofluorescence (z-score) [4] | phospho-S6 immunofluorescence (z-score) [5] | phospho-S6 immunofluorescence (z-score) [6] | phospho-S6 immunofluorescence (z-score) [7] | phospho-S6 immunofluorescence (z-score) [8] | phospho-S6 immunofluorescence (z-score) [9]
Cc1ccc2c(c1CCC(=O)O)CC[C@@H](NS(=O)(=O)c1ccc(Cl)cc1)C2 [Terutroban] | -1.31 | -0.82 | -0.19 | -0.89 | -0.88 | -0.59 | -0.9 | 0.55 | -0.1
O=c1ccccn1CC1(O)CCN(Cc2ccccc2)CC1 | 0.77 | 0.92 | 0.27 | 0.42 | -0.12 | -0.63 | 0.52 | -0.19 | 0.48
Cc1c(C(=O)NN2CCCCC2)nn(-c2ccc(Cl)cc2Cl)c1-c1ccc(Cl)cc1 [Rimonabant (Hydrochloride)] | -0.27 | -0.27 | 0.21 | -1.79 | -1.08 | -0.39 | -3.49 | -4.25 | -5.97
C[C@@H](OC[C@@]1(c2ccccc2)CC[C@]2(CCC(=O)N2)CN1)c1cc(C(F)(F)F)cc(C(F)(F)F)c1 [Rolapitant] | -0.47 | 0.29 | 0.77 | -0.34 | -0.81 | 1.04 | -4.35 | -3.8 | -0.65
CC(C)=CCC[C@](C)(O)[C@H]1CC[C@]2(C)[C@@H]1[C@H](O)C[C@@H]1[C@@]3(C)CC[C@H](O)C(C)(C)[C@@H]3[C@@H](O)C[C@]12C [(20S)-Protopanaxatriol] | 0.57 | 0.58 | 0.72 | 0.3 | -0.55 | 0.16 | -1.71 | -2.12 | -0.03
COc1ccc2c(c1OC)C(=O)O[C@@H]2[C@H]1c2c(cc3c(c2OC)OCO3)CCN1C [Noscapine] | -0.12 | 0.69 | 0.38 | 0.78 | -0.15 | 0.17 | 0.49 | 0.12 | 0.47
CNC(=O)c1cnn(-c2nc(N)c3ncn([C@@H]4O[C@H](CO)[C@@H](O)[C@H]4O)c3n2)c1 [Regadenoson] | -0.8 | 1.03 | -0.12 | -0.88 | 0.42 | -0.35 | 1.19 | 1.71 | 0.29
CCOc1nc2cccc(C(=O)O)c2n1Cc1ccc(-c2ccccc2-c2noc(=O)[nH]2)cc1 [Azilsartan] | 0.56 | -0.22 | -0.31 | 0.58 | -0.33 | -0.06 | -0.76 | 0.26 | -0.54
C[C@@H]1C[C@H]2[C@@H]3CCC4=CC(=O)C=C[C@]4(C)[C@@]3(F)[C@@H](O)C[C@]2(C)[C@@]1(O)C(=O)CO [Dexamethasone] | -1.21 | 0.85 | 0.52 | -0.08 | 0.78 | 1 | 0.1 | 0.34 | 1.02
NCCc1ccc(O)c(O)c1 [Dopamine (hydrochloride)] | -0.6 | -0.3 | -0.64 | -0.36 | 0.6 | -1.97 | 0.84 | 0.53 | 0.15
N=C(N)NCCC[C@H](NC(=O)[C@H](Cc1ccccc1)NC(=O)[C@@H]1CCCN1C(=O)[C@H](CO)NC(=O)[C@H](Cc1ccccc1)NC(=O)CNC(=O)[C@@H]1CCCN1C(=O)[C@@H]1CCCN1C(=O)[C@@H](N)CCCNC(=N)N)C(=O)O [Bradykinin] | -0.11 | 0.29 | 0.54 | 0.27 | 0.87 | -0.42 | -0.14 | 0.5 | -0.36
Nc1ncnc2c1ncn2C1CCCO1 (centres undefined) | -1.06 | -0.57 | 1.17 | -0.75 | -0.22 | -1.25 | 0.45 | -0.67 | -0.21
CC(C)C[C@H](NC(=O)[C@@H](COC(C)(C)C)NC(=O)[C@H](Cc1ccc(O)cc1)NC(=O)[C@H](CO)NC(=O)[C@H](Cc1c[nH]c2ccccc12)NC(=O)[C@H](Cc1cnc[nH]1)NC(=O)[C@@H]1CCC(=O)N1)C(=O)N[C@@H](CCCNC(=N)N)C(=O)N1CCC[C@H]1C(=O)NNC(N)=O [Goserelin (acetate)] | -0.09 | 1.14 | 0.78 | -0.75 | 0.17 | -2.7 | -1.26 | 0.37 | 0.21
c1ccc(NCc2ccc(CNc3ccccn3)cc2)nc1 | 0.09 | 0.19 | 0.51 | -0.09 | -0.34 | 0.38 | 0.88 | -0.48 | 0.72
CN1Cc2c(N)cccc2C(c2ccccc2)C1 (centres undefined) [Nomifensine (maleate)] | -0.09 | 0.31 | -0.61 | -0.4 | -0.98 | -0.01 | -0.09 | -0.69 | -0.17
Cc1c(-c2ccccc2)oc2c(C(=O)OCCN3CCCCC3)cccc2c1=O [Flavoxate (hydrochloride)] | 0.88 | 0.06 | 0.28 | 0.74 | 0.21 | -0.21 | 0.25 | 0.29 | 0.07
C[N+]1(C)CCC(=C(c2ccccc2)c2ccccc2)CC1 [Diphenmanil (methylsulfate)] | -0.12 | 0.17 | 1.51 | 0.29 | 0.24 | -0.02 | 0.46 | 0.06 | 0.8
CC(C)(C)C1CCC(N(Cc2ccc(C(=O)NCCC(=O)O)cc2)C(=O)Nc2ccc(OC(F)(F)F)cc2)CC1 (centres undefined) | -1.24 | 1 | -1.45 | -2.44 | -0.29 | -2.07 | -3.4 | -4.75 | -1.64
CN1CCN(C2=Nc3ccccc3Oc3ccc(Cl)cc32)CC1 [Loxapine (succinate)] | -2.05 | 0.59 | -3.1 | -1.48 | 0.44 | 0.51 | 0.7 | 1.22 | -1.15
CNC(=C[N+](=O)[O-])NCCSCc1ccc(CN(C)C)o1 [Ranitidine (hydrochloride)] | -0.39 | 0.35 | -0.02 | -0.07 | 0.92 | -0.35 | 0.47 | 0.54 | 0.29
C[C@H]1C[C@@H]2[C@H]([C@@H](O)C[C@@]3(C)[C@H]2CC[C@]3(O)C(=O)CO)[C@@]2(C)C=CC(=O)C=C12 [Methylprednisolone] | -0.92 | 1.6 | 0.58 | -1.17 | 2.79 | 0.18 | 0.3 | 3.09 | 0.51

By substructure, the entries above with a CF3 group.
SMILES | phospho-S6 immunofluorescence (z-score) [1] | phospho-S6 immunofluorescence (z-score) [2] | phospho-S6 immunofluorescence (z-score) [3] | phospho-S6 immunofluorescence (z-score) [4] | phospho-S6 immunofluorescence (z-score) [5] | phospho-S6 immunofluorescence (z-score) [6] | phospho-S6 immunofluorescence (z-score) [7] | phospho-S6 immunofluorescence (z-score) [8] | phospho-S6 immunofluorescence (z-score) [9]
C[C@@H](OC[C@@]1(c2ccccc2)CC[C@]2(CCC(=O)N2)CN1)c1cc(C(F)(F)F)cc(C(F)(F)F)c1 [Rolapitant] | -0.47 | 0.29 | 0.77 | -0.34 | -0.81 | 1.04 | -4.35 | -3.8 | -0.65
CC(C)(C)C1CCC(N(Cc2ccc(C(=O)NCCC(=O)O)cc2)C(=O)Nc2ccc(OC(F)(F)F)cc2)CC1 (centres undefined) | -1.24 | 1 | -1.45 | -2.44 | -0.29 | -2.07 | -3.4 | -4.75 | -1.64

(more compounds)

SMILES | phospho-S6 immunofluorescence (z-score) [1] | phospho-S6 immunofluorescence (z-score) [2] | phospho-S6 immunofluorescence (z-score) [3] | phospho-S6 immunofluorescence (z-score) [4] | phospho-S6 immunofluorescence (z-score) [5] | phospho-S6 immunofluorescence (z-score) [6] | phospho-S6 immunofluorescence (z-score) [7] | phospho-S6 immunofluorescence (z-score) [8] | phospho-S6 immunofluorescence (z-score) [9]
CN(C)CCc1c[nH]c2ccc(C[C@H]3COC(=O)N3)cc12 [Zolmitriptan] | -1.21 | -0.76 | -1.22 | 0.13 | -0.26 | -1.25 | 0.87 | 0.6 | -0.48
OCCOCCN1CCN(C2=Nc3ccccc3Sc3ccccc32)CC1 [Quetiapine (fumarate)] | -1.07 | 0.4 | -0.29 | -0.34 | -1.22 | -0.4 | -0.84 | 0.29 | -0.03
Cc1cncc(CN2CCC(=C3c4ccc(Cl)cc4CCc4cccnc43)CC2)c1 [Rupatadine (Fumarate)] | -0.59 | 0.14 | -2.36 | -0.78 | 0.46 | -1.24 | -1.47 | -2.09 | -1.45
Cc1cc2c(cc1CC(=O)c1sccc1S(=O)(=O)Nc1onc(C)c1Cl)OCO2 [Sitaxsentan (sodium)] | 1.67 | -0.48 | 0.05 | -0.01 | 0.62 | 0.22 | 0.35 | 0.35 | 0.45
CN(C)CCOC(C)(c1ccccc1)c1ccc(Cl)cc1 (centres undefined) [Chlorphenoxamine] | -0.16 | -0.81 | -0.43 | 1.03 | 0.74 | -0.25 | -4.26 | -7.36 | -4.5
O=C1NCCN1CCN1CCC(c2cn(-c3ccc(F)cc3)c3ccc(Cl)cc23)CC1 [Sertindole] | -0.38 | -0.06 | -0.84 | -0.52 | 1.07 | -0.01 | -4.7 | -6.25 | -4.35
CC(CN(C)C)CN1c2ccccc2CCc2ccccc21 (centres undefined) [Trimipramine (maleate)] | -0.45 | -0.25 | -0.16 | -1.11 | -1.25 | -0.14 | -1.05 | -2.53 | -0.39
CCCCC[C@H](O)/C=C/[C@H]1[C@H](O)CC(=O)[C@@H]1C/C=C\CCCC(=O)O [Prostaglandin E2] | -1.02 | -0.71 | -1.24 | -0.82 | 1.51 | -0.43 | -0.11 | 1.46 | -0.52
CN1CCC(=C2c3ccccc3CC(=O)c3sccc32)CC1 [Ketotifen (fumarate)] | -0.63 | -0.6 | -0.91 | -0.2 | -1.17 | 0.58 | 0.55 | -0.44 | 0.26
O=C(CN1C(=O)C2(CCCC2)NC[C@H]1c1cc(F)cc(F)c1)Nc1ccc2c(c1)C[C@@]1(C2)C(=O)Nc2ncccc21 [MK-3207 (Hydrochloride)] | -0.42 | -0.48 | -0.78 | -1.46 | -1.42 | -0.62 | -0.51 | -0.06 | -0.48
CC(C)NCC(O)COc1ccc(CCOCC2CC2)cc1 (centres undefined) [Betaxolol] | -0.77 | 0.92 | -1.33 | -0.71 | 0.76 | -0.1 | 0.15 | 0.69 | -0.54
COCCCN1CCC(NC(=O)c2cc(Cl)c(N)c3c2OCC3)CC1 [Prucalopride (succinate)] | -1.12 | -1.06 | -0.84 | -0.88 | -1.12 | -1.12 | -1.08 | -0.3 | -1.84
CCC(=O)O[C@]1(C(=O)CCl)[C@@H](C)C[C@H]2[C@@H]3CCC4=CC(=O)C=C[C@]4(C)[C@@]3(F)[C@@H](O)C[C@@]21C [Clobetasol propionate] | 0.05 | 1.13 | 1.43 | -1.31 | 1.19 | 0.63 | -0.19 | -0.09 | 0.7
C[C@]12CCC(=O)C=C1CC[C@@H]1[C@@H]2C(=O)C[C@@]2(C)[C@H]1CC[C@]2(O)C(=O)CO [Cortisone] | -0.15 | 0.88 | 1.52 | 0.51 | 0.56 | 1.15 | 0.47 | 0.58 | 1.14
NC(N)=Nc1nc(CSCC/C(N)=N/S(N)(=O)=O)cs1 [Famotidine] | -0.9 | -0.36 | -1.3 | -1.48 | 0.38 | -0.14 | -1.24 | -0.34 | -0.29
C[N+]1(C)[C@@H]2CC[C@H]1C[C@@H](OC(=O)C(O)c1ccccc1)C2 (some centres undefined) [Homatropine (methylbromide)] | 1.41 | 0.56 | 0.95 | 1.34 | 0.59 | 0.35 | 0.87 | 1.2 | 1.2
O=C(NC(Cc1cc(=O)[nH]c2ccccc12)C(=O)O)c1ccc(Cl)cc1 (centres undefined) [Rebamipide] | 0.03 | 0.23 | 0.18 | 0.33 | 0.32 | -2.45 | 0.69 | 1.1 | 0.16
CCc1cnc(N2CCC(c3nc(COc4ccc(-n5cnnn5)cc4)cs3)CC2)nc1 | -1.75 | 0.15 | 0.09 | -4.91 | -2.75 | -1.67 | -3.23 | -3.56 | -6.72
OC[C@@H](O)CN1CCN(c2ccccc2)CC1 [Levodropropizine] | -0.47 | 0.47 | -0.26 | -0.89 | -0.62 | -1.05 | -0.63 | 0.66 | -0.68
COc1ccc2cc(OCC3(C(=O)O)CN(C(=O)c4ccc(F)cc4)C3)ccc2c1 | -0.58 | -0.5 | 0.01 | 0.05 | -1.11 | 0.18 | -1.13 | 0.61 | 0.47

From the supplement of paper PMC7411640
